Article PMC6059495
No constants are given. Whether binding was seen depends on the method and setting. Binding seen in cells or lysates may run through a third protein. These calls come from enrichment with a bait or labelling near it, and not all partners need be listed.

Molecular target: T. gondii ATP synthase OSCP subunit tagged with YFP-HA (TgATPOSCP-YFP-HA) (T. gondii)
Experiment: affinity purification with mass spectrometry; α-HA antibodies cross-linked to Protein A/G Plus agarose; supernatant of DDM-solubilized mitochondria of TgATPOSCP-YFP-HA tachyzoites, overnight at 4 °C; washed with PBS with DDM; eluted with 0.2 M glycine pH 2.3; LC-MS/MS

binding: binds
B1: ASAP TGME49_223040 (protein, UniProt S8FBB2 1-239)
chain: MAETREGGQSGAASILGAEAFPELLSKVPLNPQMDEDKHFNKYKWGNEPIPVNRRTGSRMNSSIYDNRNHEAVRHPWSTDARTFHPNDNPEADRINTQYSNMVSDSFPEGGFSDAPRFSSNWERLLAYHHGLYSPEKFNSTTKTADEIRLAVNDFAAKVHADDPKNACKYLMIEEFKCLQSAQARIDPQGAATKCVKWFNEWRQCAWDQEKMVKGYNYIEDRRARKHKPYIGAPDLQYS
